Measurements as given in PMC3955178, “Structural characterization of a hypothetical protein: a potential agent involved in trimethylamine metabolism in Catenulispora acidiphila” (Journal of Structural and Functional Genomics, 2014).
These are yes or no findings as the source states them, for the method shown. Some entries that bind do so weakly or less than the wild type.

Target: Caci_0382 from Catenulispora acidiphila DSM 44928 (Catenulispora acidiphila DSM 44928) (UniProt C7PVH9)
Assay: crystal structure; two crystal forms: apo-form (P61, 1.15 Å) and complex with trimethylamine (P21, 1.95 Å); two protomers per asymmetric unit, related by a twofold axis; both purified

binding: binds
B1: Caci_0382 from Catenulispora acidiphila DSM 44928 (natural protein)
chain: MTTPEIVTAWAAAWTGTNPNALGTLFAADGTYVDHAIGATMTGREQISGWKARTDAMIENVHVTITKAYRAGDHVTIEAVYGGHIKGAPTPFAVPMATLLRTRGEEITSDQDYYSLSSVLAQSGLPADWTPSDS
modifications: selenomethionine-labeled
notes: Caci_0382, hypothetical protein of the NTF2-like family, Catenulispora acidiphila DSM 44928; the gene encodes a 134 amino-acid protein of 14.3 kDa; Subcloned in the pMCSG57 vector, which adds a 6 His-Tag at the N-terminus; 131 Calpha atoms per subunit were aligned between the two crystal forms; also called hypothetical protein Caci_0382
